{"source": "paper PMC8184817", "about": "“Transmission of light signals from the light-oxygen-voltage core via the hydrophobic region of the β-sheet surface in aureochrome-1” (Scientific Reports, 2021)", "binders": {"B1": {"name": "Photozipper (PZ), N-terminally truncated aureochrome-1 of Vaucheria frigida, wild type (domain or fragment, UniProt A8QW55 113-348, looked up)", "chain": "GSISSELTEAQKVERRERNREHAKRSRVRKKFLLESLQQSVNELNHENNSLKESIREHLGPRGDSLIAQSSPEADTLLTDNPSKANRILEDPDYSLVKALQMAQQNFVITDASLPDNPIVYASRGFLTLTGYSLDQILGRNCRFLQGPETDPRAVDKIRNAITKGVDTSVCLLNYRQDGTTFWNLFFVAGLRDSKGNIVNYVGVQSKVSEDYAKLLVNEQNIEYKGVRTSNMLRRK", "notes": "aureochrome-1 of Vaucheria frigida (VfAUREO1), G113-K348 with C162S and C182S, encoded by the synthetic gene opZL; holds the bZIP and LOV domains; in the light (L) state FMN forms a covalent adduct with a conserved cysteine; also called wtPZ; source: recombinant protein"}, "B2": {"name": "Photozipper (PZ) Q217A mutant (domain or fragment, Vaucheria frigida, UniProt A8QW55 113-348, looked up)", "chain": "GSISSELTEAQKVERRERNREHAKRSRVRKKFLLESLQQSVNELNHENNSLKESIREHLGPRGDSLIAQSSPEADTLLTDNPSKANRILEDPDYSLVKALQMAQANFVITDASLPDNPIVYASRGFLTLTGYSLDQILGRNCRFLQGPETDPRAVDKIRNAITKGVDTSVCLLNYRQDGTTFWNLFFVAGLRDSKGNIVNYVGVQSKVSEDYAKLLVNEQNIEYKGVRTSNMLRRK", "notes": "aureochrome-1 of Vaucheria frigida (VfAUREO1), G113-K348 with C162S and C182S (opZL gene), plus Q217A; also called hinge mutant"}, "B3": {"name": "Photozipper (PZ) F299V mutant (domain or fragment, Vaucheria frigida, UniProt A8QW55 113-348, looked up)", "chain": "GSISSELTEAQKVERRERNREHAKRSRVRKKFLLESLQQSVNELNHENNSLKESIREHLGPRGDSLIAQSSPEADTLLTDNPSKANRILEDPDYSLVKALQMAQQNFVITDASLPDNPIVYASRGFLTLTGYSLDQILGRNCRFLQGPETDPRAVDKIRNAITKGVDTSVCLLNYRQDGTTFWNLFVVAGLRDSKGNIVNYVGVQSKVSEDYAKLLVNEQNIEYKGVRTSNMLRRK", "notes": "aureochrome-1 of Vaucheria frigida (VfAUREO1), G113-K348 with C162S and C182S (opZL gene), plus F299V; also called β-sheet mutant"}, "B4": {"name": "Photozipper (PZ) L303A mutant (domain or fragment, Vaucheria frigida, UniProt A8QW55 113-348, looked up)", "chain": "GSISSELTEAQKVERRERNREHAKRSRVRKKFLLESLQQSVNELNHENNSLKESIREHLGPRGDSLIAQSSPEADTLLTDNPSKANRILEDPDYSLVKALQMAQQNFVITDASLPDNPIVYASRGFLTLTGYSLDQILGRNCRFLQGPETDPRAVDKIRNAITKGVDTSVCLLNYRQDGTTFWNLFFVAGARDSKGNIVNYVGVQSKVSEDYAKLLVNEQNIEYKGVRTSNMLRRK", "notes": "aureochrome-1 of Vaucheria frigida (VfAUREO1), G113-K348 with C162S and C182S (opZL gene), plus L303A; also called β-sheet mutant"}, "B5": {"name": "Photozipper (PZ) N218A mutant (domain or fragment, Vaucheria frigida, UniProt A8QW55 113-348, looked up)", "chain": "GSISSELTEAQKVERRERNREHAKRSRVRKKFLLESLQQSVNELNHENNSLKESIREHLGPRGDSLIAQSSPEADTLLTDNPSKANRILEDPDYSLVKALQMAQQAFVITDASLPDNPIVYASRGFLTLTGYSLDQILGRNCRFLQGPETDPRAVDKIRNAITKGVDTSVCLLNYRQDGTTFWNLFFVAGLRDSKGNIVNYVGVQSKVSEDYAKLLVNEQNIEYKGVRTSNMLRRK", "notes": "aureochrome-1 of Vaucheria frigida (VfAUREO1), G113-K348 with C162S and C182S (opZL gene), plus N218A; also called hinge mutant"}, "B6": {"name": "Photozipper (PZ) Q216A mutant (domain or fragment, Vaucheria frigida, UniProt A8QW55 113-348, looked up)", "chain": "GSISSELTEAQKVERRERNREHAKRSRVRKKFLLESLQQSVNELNHENNSLKESIREHLGPRGDSLIAQSSPEADTLLTDNPSKANRILEDPDYSLVKALQMAAQNFVITDASLPDNPIVYASRGFLTLTGYSLDQILGRNCRFLQGPETDPRAVDKIRNAITKGVDTSVCLLNYRQDGTTFWNLFFVAGLRDSKGNIVNYVGVQSKVSEDYAKLLVNEQNIEYKGVRTSNMLRRK", "notes": "aureochrome-1 of Vaucheria frigida (VfAUREO1), G113-K348 with C162S and C182S (opZL gene), plus Q216A; also called hinge mutant"}}, "key": {"[1]": {"molecular_target": "Photozipper (PZ), N-terminally truncated aureochrome-1 of Vaucheria frigida, wild type (Vaucheria frigida) (UniProt A8QW55)", "test": "SEC; dark (D) state: 8 or 50 µM protein incubated 20 min at 25 °C in the dark; Superdex 75 column, 400 mM NaCl, 20 mM Tris-HCl pH 7.0, 25 ± 1 °C, 0.5 mL/min; monomer to dimer; both purified"}, "[2]": {"molecular_target": "Photozipper (PZ) Q217A mutant (Vaucheria frigida) (UniProt A8QW55)", "test": "dynamic light scattering (DLS); dark (D) state: 30-60 µM protein, 25 °C, hydrodynamic radius extrapolated to 0 µM protein; monomer to dimer; both purified"}, "[3]": {"molecular_target": "Photozipper (PZ) F299V mutant (Vaucheria frigida) (UniProt A8QW55)", "test": "dynamic light scattering (DLS); dark (D) state: 30-60 µM protein, 25 °C, hydrodynamic radius extrapolated to 0 µM protein; monomer to dimer; both purified"}, "[4]": {"molecular_target": "Photozipper (PZ) L303A mutant (Vaucheria frigida) (UniProt A8QW55)", "test": "dynamic light scattering (DLS); dark (D) state: 30-60 µM protein, 25 °C, hydrodynamic radius extrapolated to 0 µM protein; monomer to dimer; both purified"}, "[5]": {"molecular_target": "Photozipper (PZ) N218A mutant (Vaucheria frigida) (UniProt A8QW55)", "test": "dynamic light scattering (DLS); dark (D) state: 30-60 µM protein, 25 °C, hydrodynamic radius extrapolated to 0 µM protein; monomer to dimer; both purified"}, "[6]": {"molecular_target": "Photozipper (PZ) N218A mutant (Vaucheria frigida) (UniProt A8QW55)", "test": "SEC; dark (D) state: 8 or 50 µM protein incubated 20 min at 25 °C in the dark; Superdex 75 column, 400 mM NaCl, 20 mM Tris-HCl pH 7.0, 25 ± 1 °C, 0.5 mL/min; monomer to dimer; both purified"}, "[7]": {"molecular_target": "Photozipper (PZ) Q216A mutant (Vaucheria frigida) (UniProt A8QW55)", "test": "dynamic light scattering (DLS); dark (D) state: 30-60 µM protein, 25 °C, hydrodynamic radius extrapolated to 0 µM protein; monomer to dimer; both purified"}}, "note": "Results are given in words; binding and its absence hold for the method and conditions named.", "data": [{"binder": "B1", "values": [{"measurement": "binding", "setting": "[1]", "value": "no binding (condition: in the dark (D state); 8 or 50 µM)"}]}, {"binder": "B2", "values": [{"measurement": "binding", "setting": "[2]", "value": "no binding (condition: in the dark (D state); 30–60 µM)"}]}, {"binder": "B3", "values": [{"measurement": "binding", "setting": "[3]", "value": "no binding (condition: in the dark (D state); 30–60 µM)"}]}, {"binder": "B4", "values": [{"measurement": "binding", "setting": "[4]", "value": "no binding (condition: in the dark (D state); 30–60 µM)"}]}, {"binder": "B5", "values": [{"measurement": "binding", "setting": "[5]", "value": "no binding (condition: in the dark (D state); 30–60 µM)"}, {"measurement": "binding", "setting": "[6]", "value": "no binding (condition: in the dark (D state); 8 or 50 µM)"}]}, {"binder": "B6", "values": [{"measurement": "binding", "setting": "[7]", "value": "no binding (condition: in the dark (D state); 30–60 µM)"}]}]}
